Reference: patent publication US20110182905A1
No constants are given. Whether binding was seen depends on the method and setting. A result given as binding can be weak or reduced; the word gives no strength.

Experiments:
[1] = molecular target: marmoset GM-CSF (marmoset); assay: Biacore
rhesus GM-CSF (rhesus) [2] = assay: Biacore
rhesus GM-CSF (rhesus) [3] = assay: Western blot

binding [1]: binds
binding (rhesus GM-CSF (rhesus) [2]): binds
binding (rhesus GM-CSF (rhesus) [3]): binds
B1: EV1019 (antibody, human IgG1, lambda, V domains shown)
VH: QAQLVESGGGVVKPGGSLRLSCISSKFTFSSHAMHWVRQAPGKGLEWVAVIWHDGSKKYYADSVKGRFSVSRDNSKNTLFLQMDSLRAEDTAVYFCGKEWVGGTCDSWGQGTLVIVSS
VL: QPALTQEASVSGTVGQTVTLLCSGNSSNIGSYAVGWYQQISRGAPKIVVFGKSPASGIPDRFSGSKSGTTASLLVSGLQPEDEADYYCSTWDSRLSAVLFGGGTKLTVLR
